In the experiment the target is β-site amyloid precursor protein cleaving enzyme 1 (BACE1), HA-tagged, wild type (UniProt P56817). Put plainly: co-IP; HEK 293 cells overexpressing IR (IRA or IRB) and HA-tagged BACE1 or inactive BACE1 (BACE1i), treated or not with the BACE1 inhibitor C3; BACE1 immunoprecipitated with anti-HA antibody; IR and BACE1 detected by immunoblot. In general terms: A western blot detects proteins with antibodies after separation by electrophoresis.

The chains behind the UniProt entries cited, without tags or fusion partners. Where a name states a change or a piece, a line headed by the entry shows the natural chain unless it says otherwise. A line that says so, or that is headed by a name, gives the form on record, which may keep a tag or linker. Residues count along the entry.
UniProt P56817, residues 22-501: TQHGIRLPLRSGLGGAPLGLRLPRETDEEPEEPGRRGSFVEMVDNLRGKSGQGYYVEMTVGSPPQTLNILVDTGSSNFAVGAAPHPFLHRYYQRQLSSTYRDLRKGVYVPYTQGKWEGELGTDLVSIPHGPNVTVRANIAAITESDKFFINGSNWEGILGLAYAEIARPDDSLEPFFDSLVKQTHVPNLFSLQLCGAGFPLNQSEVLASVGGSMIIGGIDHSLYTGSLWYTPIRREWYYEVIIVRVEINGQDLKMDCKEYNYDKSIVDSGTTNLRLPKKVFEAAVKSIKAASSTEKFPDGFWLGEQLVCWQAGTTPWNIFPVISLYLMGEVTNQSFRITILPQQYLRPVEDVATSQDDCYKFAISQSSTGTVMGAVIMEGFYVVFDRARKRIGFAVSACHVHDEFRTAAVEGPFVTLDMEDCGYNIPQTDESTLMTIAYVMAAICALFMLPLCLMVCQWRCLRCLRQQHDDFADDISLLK
insulin receptor precursor (proIR), isoform A (P06213-2, form named): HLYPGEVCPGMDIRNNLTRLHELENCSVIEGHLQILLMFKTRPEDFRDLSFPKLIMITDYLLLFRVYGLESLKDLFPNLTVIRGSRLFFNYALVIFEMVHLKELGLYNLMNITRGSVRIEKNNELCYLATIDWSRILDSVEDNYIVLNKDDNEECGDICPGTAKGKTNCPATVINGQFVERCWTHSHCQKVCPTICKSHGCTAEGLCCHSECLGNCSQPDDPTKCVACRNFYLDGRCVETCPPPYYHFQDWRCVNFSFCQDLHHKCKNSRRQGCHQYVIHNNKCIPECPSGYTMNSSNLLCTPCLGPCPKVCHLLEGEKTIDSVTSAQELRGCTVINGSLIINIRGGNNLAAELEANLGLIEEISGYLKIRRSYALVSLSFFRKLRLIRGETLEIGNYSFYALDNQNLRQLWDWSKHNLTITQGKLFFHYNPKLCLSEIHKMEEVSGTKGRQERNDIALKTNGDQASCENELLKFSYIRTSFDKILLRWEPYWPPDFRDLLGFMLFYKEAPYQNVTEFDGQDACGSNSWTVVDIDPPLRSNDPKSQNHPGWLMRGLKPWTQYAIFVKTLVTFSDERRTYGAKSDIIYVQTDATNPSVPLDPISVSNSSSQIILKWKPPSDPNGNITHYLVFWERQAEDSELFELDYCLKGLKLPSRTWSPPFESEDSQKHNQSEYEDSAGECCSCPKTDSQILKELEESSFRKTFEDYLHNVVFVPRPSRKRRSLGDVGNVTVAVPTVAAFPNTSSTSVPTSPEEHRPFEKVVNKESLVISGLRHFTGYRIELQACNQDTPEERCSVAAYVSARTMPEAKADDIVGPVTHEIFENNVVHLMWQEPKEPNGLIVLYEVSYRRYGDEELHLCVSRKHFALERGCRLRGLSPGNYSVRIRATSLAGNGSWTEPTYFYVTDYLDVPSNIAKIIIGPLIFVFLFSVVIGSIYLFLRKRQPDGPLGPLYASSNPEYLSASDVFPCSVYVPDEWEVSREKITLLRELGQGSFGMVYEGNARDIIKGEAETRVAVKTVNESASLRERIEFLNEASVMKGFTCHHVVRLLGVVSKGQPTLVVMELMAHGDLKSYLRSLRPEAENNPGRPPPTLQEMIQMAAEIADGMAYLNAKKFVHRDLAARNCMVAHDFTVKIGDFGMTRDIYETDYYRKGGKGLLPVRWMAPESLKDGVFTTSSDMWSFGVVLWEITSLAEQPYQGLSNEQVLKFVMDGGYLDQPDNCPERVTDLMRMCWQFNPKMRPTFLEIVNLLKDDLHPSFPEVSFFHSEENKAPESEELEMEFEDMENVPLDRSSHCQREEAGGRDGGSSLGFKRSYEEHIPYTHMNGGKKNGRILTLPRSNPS

Results are given in words; binding and its absence hold for the method and conditions named. In cells and extracts the contact can be indirect. Some binding calls cover weakened binding; strength is not graded here.

As to “insulin receptor precursor (proIR), isoform A (from UniProt P06213-2 28-1370)”, the binding result is given as “binds”.

Source of the values: publication PMC5880807.
